Test results from patent US20170073337A1, “DIHYDROTHIAZINE AND DIHYDROOXAZINE DERIVATIVES HAVING BACE1 INHIBITORY ACTIVITY” (Shionogi & Co., Ltd., priority 2014, published 2017).

The chains behind the UniProt entries cited, without tags or fusion partners.
UniProt P21447, whole entry: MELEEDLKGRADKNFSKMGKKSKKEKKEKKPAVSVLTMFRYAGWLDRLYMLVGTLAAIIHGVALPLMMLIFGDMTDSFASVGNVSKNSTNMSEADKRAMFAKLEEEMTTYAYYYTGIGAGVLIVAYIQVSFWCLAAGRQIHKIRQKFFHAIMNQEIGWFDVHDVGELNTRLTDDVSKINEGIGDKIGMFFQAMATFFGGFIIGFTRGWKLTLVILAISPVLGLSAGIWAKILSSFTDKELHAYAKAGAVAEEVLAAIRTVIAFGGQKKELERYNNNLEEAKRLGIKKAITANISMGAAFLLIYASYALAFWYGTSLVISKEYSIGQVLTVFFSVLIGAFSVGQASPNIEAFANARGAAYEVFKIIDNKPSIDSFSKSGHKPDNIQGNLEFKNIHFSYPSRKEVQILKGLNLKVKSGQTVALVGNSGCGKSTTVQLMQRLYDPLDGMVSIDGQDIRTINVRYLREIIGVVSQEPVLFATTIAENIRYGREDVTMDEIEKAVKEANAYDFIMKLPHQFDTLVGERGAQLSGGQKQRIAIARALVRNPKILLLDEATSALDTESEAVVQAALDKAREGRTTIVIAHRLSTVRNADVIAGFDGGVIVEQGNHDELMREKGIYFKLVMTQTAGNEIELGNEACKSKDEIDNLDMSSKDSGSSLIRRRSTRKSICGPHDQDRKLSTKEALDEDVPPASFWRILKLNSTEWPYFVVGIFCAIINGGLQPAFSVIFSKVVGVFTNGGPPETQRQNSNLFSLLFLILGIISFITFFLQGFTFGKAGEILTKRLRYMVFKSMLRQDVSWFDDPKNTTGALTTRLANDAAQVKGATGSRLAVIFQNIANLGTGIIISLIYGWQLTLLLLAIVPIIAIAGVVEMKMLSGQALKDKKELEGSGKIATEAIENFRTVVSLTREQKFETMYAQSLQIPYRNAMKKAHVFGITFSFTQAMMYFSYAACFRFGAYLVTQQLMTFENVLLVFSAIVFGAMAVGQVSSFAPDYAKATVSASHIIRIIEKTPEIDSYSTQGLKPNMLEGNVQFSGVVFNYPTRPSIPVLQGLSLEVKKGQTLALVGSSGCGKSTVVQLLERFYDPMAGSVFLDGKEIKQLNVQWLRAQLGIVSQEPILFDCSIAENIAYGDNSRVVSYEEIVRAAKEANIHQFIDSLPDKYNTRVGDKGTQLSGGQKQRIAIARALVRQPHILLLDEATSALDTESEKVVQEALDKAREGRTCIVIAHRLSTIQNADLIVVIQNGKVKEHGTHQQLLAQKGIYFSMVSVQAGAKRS

Legend:
Solubility test = format: physicochemical; details: for solubility kinetic: kinetic from dmso stock
Method: A 10 mmol/L solution of the compound was prepared with DMSO, and 2 μL of the compound of the present invention solution was added, respectively, to 198 μL of JP 1st fluid (water was added to 2.0 g of sodium chloride and 7.0 ml, of hydrochloric acid to reach 1000 mL) and JP 2nd fluid (See Table 4). The mixture was left standing for 16 hours at 25° C. or shaken for 1 hour at ruom temperature, and the mixture was vacuum-filtered. The […] was ten or one hundred-fold diluted with metbanol/water=1/1 (v/v) or MeCN/MeOH/H2O(=1/1/2), and the compound concent ration in the filtrate was measured with LC/MS or solid phase extraction (SPE)/MS by the absolute calibration method.

[1] = Brain distribution studies; details: in vivo; rat, intravenous 0.5 mg/mL/kg, 30 minutes later; area ratio brain/plasma
Method: Compound of the present invention was intravenously administered to a rat at 0.5 mg/mL/kg dosage. 30 minutes later, all blood was drawn from the abdominal aorta under isoflurane anesthesia for death from exsanguination. […] The obtained blood was used as plasma after centrifuging. The control plasma was added to the brain sample at 1:1. The control brain homogenate was added to the plasma sample at 1:1. Each sample was measured using LC/MS/MS. The obtained area ratio (a brain/plasma) was used for the brain Kp value.

P-gp = biological target: T1, P-gp (Mus musculus, UniProt P21447); experiment: P-gp substrate test using mdr1a (−/−) B6 mice; format: in vivo; details: mdr1a (−/−) B6 (KO) and C57BL/6J (wild), brain / plasma, Kp in KO mouse (mdr1a (−/−) B6) / Kp in Wild mouse, 2 mg/kg, po, read-out: Kp ratio (2 mg/kg, po, 2 hr)
T1 construct: from tissue; host or cells: living mice (brain/plasma distribution), wild type versus mdr1a (−/−)
Method: Animal: mdrla (−/−) B6 mice (KO mouse) or […] mice (Wild mouse)
1. Animals may be fed prior to dosing of the compounds of the present invention. 2. The compounds of the present invention were dosed to three animals for each time point and blood and brain samples were removed at selected time points (e.g. 15 min, 30 min, 1 hr, 2 hr, 4 hr, 6 hr, 8 hr, or 24 hr) after dosing. Blood (0.3-0.7 mL) was collected via trunk blood collection with syringe containing anticoagulants (EDTA and heparin). Blood and tissue (e.g. brain) samples were immediately placed on melting ice. 3. Blood samples were centrifuged (1780×g for 10 minutes) for cell removal to obtain plasma. Then, plasma samples were transferred to a clean tube and stored in a −70° C. freezer until analysis. 4. Tissue (e.g. brain) samples were homogenized at a 1:3 ratio of tissue weight to ml of stilled water and transferred to a clean tube and stored in a −70° C. freezer until analysis. 5. Plasma and tissue (e.g. brain) samples were prepared using protein prceipitation and analyzed by LC/MS/MS. The analytical method was calibrated by including a standard curve constructed with blank plasma or brain samples and known quantities of analyte. Quality control samples were included to monitor the accuracy and precision of the methodology. 6. […]

[2] = pH 1.2, simulated gastric fluid

| Compound | solubility kinetic (Solubility test; [2]) [µM] | solubility kinetic (Solubility test; pH 6.8, aqueous buffer) [µM] | Kp at 0.5 h [1] | Kp at 2 h (P-gp) | JP2_μM (Solubility test; pH 6.8) [µM] |
| --- | --- | --- | --- | --- | --- |
| C[C@H]1SC(N)=N[C@](C)(c2cc(NC(=O)c3cnc(OCF)cn3)ccc2F)[C@H]1F [Compound I-9] | > 50 | > 50 | 3.3 | 3.13 | – |
| C[C@@H]1SC(N)=N[C@](C)(c2cc(NC(=O)c3cnc(OCF)cn3)ccc2F)[C@@H]1F [Compound I-112] | > 50 | – | – | – | >50.0 |
